Results reported in the supplement of paper PMC10849652.
The other results are listed elsewhere or left out.

Protein sequences, listed by entry. Tags and fused reporters are not part of them. Lines headed by an entry give the natural chain unless they say otherwise; changes in a name come on top.
UniProt Q8IYK4: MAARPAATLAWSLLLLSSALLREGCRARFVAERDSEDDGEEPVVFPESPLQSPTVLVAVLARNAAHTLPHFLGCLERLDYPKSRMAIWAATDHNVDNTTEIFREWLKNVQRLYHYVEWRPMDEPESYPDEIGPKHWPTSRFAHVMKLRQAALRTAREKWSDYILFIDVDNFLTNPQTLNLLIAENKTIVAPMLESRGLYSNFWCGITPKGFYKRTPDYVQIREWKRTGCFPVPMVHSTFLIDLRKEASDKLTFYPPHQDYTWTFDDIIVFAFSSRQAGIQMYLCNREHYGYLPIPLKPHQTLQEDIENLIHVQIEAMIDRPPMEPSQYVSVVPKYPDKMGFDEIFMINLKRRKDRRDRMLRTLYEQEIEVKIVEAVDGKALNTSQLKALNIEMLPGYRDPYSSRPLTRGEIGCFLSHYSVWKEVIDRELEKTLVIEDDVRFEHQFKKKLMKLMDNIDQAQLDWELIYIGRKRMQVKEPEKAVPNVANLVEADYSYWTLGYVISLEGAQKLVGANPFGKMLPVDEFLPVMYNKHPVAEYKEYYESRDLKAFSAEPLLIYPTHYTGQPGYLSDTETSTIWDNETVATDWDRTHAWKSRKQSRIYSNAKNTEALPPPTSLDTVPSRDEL
UniProt A4D0V7: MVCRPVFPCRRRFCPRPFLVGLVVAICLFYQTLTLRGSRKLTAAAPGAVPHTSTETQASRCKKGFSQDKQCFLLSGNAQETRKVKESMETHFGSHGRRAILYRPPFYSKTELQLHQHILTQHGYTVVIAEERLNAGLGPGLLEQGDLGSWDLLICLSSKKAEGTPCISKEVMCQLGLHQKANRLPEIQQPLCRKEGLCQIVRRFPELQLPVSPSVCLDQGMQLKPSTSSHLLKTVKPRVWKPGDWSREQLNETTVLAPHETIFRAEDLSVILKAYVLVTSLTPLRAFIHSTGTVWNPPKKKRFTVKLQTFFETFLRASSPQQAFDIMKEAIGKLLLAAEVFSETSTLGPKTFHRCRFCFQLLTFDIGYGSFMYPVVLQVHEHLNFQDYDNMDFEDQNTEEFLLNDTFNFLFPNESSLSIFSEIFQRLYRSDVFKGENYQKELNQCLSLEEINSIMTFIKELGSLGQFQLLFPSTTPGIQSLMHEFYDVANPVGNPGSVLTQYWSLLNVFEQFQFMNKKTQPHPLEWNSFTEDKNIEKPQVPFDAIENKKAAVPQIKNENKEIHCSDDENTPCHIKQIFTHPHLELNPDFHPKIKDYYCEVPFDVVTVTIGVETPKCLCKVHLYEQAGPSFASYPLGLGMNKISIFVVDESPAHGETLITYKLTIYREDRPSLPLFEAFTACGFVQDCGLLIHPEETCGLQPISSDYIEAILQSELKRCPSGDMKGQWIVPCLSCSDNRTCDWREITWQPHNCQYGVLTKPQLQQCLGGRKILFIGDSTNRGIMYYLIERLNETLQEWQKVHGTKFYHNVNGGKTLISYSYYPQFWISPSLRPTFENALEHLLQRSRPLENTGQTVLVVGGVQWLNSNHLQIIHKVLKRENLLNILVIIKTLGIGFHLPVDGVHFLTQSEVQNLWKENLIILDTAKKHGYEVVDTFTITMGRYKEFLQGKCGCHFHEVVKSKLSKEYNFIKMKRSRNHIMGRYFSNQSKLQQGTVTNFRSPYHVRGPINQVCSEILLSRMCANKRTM
UniProt Q8N8Q8: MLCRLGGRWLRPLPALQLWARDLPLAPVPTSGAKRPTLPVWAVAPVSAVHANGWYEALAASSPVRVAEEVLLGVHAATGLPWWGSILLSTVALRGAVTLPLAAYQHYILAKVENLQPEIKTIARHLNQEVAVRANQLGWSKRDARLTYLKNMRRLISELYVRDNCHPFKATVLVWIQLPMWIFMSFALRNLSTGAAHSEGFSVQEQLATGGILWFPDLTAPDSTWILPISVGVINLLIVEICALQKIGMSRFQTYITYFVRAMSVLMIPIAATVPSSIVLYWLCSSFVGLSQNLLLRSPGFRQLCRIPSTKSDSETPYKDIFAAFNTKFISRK
UniProt P38432, whole entry, looked up: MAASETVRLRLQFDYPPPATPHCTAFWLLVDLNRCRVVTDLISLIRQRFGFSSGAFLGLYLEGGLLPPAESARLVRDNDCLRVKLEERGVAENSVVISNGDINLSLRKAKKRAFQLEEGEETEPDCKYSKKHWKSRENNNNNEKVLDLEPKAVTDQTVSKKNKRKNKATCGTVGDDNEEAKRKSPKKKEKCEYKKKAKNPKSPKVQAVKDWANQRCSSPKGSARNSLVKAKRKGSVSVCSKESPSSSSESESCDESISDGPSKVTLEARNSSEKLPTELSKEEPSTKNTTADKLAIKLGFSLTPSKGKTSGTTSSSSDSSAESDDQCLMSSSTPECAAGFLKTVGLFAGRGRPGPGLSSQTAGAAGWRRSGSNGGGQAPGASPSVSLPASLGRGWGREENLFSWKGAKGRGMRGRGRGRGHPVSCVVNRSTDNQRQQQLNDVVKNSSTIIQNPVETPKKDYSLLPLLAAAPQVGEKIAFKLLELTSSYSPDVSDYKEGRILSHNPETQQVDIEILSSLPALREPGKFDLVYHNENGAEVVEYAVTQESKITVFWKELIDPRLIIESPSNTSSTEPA
UniProt P53621: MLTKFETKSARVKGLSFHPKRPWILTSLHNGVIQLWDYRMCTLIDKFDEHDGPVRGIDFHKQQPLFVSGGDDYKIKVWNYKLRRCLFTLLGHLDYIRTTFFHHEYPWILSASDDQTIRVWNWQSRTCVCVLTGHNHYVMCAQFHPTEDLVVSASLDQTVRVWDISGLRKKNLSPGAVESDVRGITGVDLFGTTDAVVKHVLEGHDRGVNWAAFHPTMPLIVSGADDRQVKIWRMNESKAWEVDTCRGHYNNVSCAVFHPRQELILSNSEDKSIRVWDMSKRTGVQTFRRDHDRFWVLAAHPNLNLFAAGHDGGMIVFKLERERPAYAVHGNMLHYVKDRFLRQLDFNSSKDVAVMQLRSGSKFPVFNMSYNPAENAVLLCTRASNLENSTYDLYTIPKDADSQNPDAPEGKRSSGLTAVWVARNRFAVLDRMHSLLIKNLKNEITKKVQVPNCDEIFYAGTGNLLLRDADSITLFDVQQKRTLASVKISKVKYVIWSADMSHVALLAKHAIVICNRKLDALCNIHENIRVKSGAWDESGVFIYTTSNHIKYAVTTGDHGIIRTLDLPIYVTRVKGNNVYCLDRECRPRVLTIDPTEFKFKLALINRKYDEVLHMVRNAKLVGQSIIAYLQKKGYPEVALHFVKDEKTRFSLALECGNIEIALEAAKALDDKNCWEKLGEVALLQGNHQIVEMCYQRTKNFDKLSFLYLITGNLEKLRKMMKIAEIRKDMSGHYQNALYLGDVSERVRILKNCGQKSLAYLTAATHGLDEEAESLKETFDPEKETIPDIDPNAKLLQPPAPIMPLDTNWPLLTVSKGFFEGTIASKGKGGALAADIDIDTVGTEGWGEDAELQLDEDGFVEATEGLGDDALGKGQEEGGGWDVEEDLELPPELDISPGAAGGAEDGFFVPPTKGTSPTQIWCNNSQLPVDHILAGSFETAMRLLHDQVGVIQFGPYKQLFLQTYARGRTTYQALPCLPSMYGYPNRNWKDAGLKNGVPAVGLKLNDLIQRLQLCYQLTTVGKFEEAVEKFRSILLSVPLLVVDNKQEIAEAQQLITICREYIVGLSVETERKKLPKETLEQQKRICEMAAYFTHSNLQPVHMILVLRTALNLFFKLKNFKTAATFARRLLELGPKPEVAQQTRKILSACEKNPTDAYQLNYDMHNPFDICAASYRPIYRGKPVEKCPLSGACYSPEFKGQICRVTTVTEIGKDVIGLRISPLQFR
UniProt Q99439: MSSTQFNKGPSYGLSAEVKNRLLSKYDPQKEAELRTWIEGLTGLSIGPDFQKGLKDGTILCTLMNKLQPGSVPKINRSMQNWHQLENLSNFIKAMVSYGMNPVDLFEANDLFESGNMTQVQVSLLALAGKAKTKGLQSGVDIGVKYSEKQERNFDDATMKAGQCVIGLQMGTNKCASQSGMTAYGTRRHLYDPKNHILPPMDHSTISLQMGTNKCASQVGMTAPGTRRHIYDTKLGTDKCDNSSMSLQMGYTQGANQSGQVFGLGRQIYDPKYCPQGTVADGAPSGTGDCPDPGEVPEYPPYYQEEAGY
UniProt Q10570: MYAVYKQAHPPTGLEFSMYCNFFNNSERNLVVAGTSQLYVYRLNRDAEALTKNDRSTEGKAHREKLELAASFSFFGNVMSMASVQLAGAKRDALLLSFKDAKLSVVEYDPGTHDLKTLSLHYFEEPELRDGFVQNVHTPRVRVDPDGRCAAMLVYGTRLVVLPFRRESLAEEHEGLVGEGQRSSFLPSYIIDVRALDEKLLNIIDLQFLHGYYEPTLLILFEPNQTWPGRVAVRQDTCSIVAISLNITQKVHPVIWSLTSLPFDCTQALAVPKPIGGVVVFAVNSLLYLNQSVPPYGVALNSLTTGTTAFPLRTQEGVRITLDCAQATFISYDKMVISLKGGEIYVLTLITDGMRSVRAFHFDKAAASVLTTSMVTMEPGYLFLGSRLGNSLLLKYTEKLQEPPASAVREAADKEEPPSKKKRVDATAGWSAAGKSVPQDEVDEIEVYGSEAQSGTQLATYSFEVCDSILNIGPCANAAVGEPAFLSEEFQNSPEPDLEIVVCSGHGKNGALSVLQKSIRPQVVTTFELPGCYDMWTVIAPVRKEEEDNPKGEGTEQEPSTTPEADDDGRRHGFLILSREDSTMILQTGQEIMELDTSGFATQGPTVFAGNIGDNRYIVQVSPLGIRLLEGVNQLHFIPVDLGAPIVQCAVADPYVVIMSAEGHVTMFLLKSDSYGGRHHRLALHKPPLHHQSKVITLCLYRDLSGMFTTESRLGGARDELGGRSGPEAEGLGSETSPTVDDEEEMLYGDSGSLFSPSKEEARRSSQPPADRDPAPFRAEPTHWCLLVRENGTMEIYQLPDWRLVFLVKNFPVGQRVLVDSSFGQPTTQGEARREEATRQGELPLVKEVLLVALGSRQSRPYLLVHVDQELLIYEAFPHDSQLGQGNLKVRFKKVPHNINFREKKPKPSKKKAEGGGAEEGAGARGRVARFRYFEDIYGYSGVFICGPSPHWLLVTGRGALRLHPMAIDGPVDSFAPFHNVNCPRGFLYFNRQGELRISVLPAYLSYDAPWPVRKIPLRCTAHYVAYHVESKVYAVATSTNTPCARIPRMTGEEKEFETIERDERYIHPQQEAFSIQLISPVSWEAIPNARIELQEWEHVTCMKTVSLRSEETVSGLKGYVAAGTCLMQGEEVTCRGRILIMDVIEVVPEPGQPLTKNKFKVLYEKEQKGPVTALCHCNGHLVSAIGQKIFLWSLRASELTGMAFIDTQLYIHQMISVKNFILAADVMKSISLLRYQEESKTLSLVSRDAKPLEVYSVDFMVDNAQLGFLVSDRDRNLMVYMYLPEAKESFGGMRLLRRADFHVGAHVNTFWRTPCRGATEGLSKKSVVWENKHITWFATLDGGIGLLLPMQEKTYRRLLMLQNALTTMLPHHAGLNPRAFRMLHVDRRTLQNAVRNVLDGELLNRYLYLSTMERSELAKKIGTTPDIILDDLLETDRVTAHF
UniProt Q8NE01: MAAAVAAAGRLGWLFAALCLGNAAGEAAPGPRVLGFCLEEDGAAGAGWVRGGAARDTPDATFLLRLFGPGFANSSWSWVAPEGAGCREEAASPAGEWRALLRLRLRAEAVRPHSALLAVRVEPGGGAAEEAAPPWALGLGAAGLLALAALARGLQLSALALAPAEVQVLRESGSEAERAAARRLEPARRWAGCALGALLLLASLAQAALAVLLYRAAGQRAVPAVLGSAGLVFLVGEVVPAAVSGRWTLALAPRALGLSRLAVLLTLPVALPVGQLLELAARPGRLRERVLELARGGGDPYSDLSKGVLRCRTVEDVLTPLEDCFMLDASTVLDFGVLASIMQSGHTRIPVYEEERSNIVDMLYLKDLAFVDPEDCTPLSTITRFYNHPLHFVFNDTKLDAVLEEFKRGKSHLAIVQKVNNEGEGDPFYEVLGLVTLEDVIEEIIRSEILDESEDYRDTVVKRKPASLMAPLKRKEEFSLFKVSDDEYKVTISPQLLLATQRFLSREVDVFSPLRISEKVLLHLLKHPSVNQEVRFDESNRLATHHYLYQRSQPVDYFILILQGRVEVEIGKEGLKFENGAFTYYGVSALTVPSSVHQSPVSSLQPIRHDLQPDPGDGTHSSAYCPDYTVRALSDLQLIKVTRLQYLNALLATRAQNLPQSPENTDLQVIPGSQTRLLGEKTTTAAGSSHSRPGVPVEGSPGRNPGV
UniProt Q9UFF9, whole entry, looked up: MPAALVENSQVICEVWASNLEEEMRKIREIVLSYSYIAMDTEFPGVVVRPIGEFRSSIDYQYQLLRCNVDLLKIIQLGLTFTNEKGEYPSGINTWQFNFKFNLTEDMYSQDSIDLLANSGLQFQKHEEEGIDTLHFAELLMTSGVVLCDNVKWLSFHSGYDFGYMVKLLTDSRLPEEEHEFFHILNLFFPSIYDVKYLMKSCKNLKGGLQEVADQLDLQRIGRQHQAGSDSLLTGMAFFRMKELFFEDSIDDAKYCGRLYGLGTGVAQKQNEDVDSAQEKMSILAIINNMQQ

Key:
Assay in all cases: log2 fold change, soluble protein after heating vs DMSO (PISA); higher = thermal stabilisation; K562 lysate, 10 uM; active = over 0.2 and 3.5 SD of the protein, either way, in both replicates (recomputed)
vemurafenib = compound: CCCS(=O)(=O)Nc1ccc(F)c(C(=O)c2c[nH]c3ncc(-c4ccc(Cl)cc4)cc23)c1F [vemurafenib]
Outline: (§1)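 Quantification was by TMTpro 16plex LC-MS/MS with equalised channel sums, applied to the supernatant after 21,000xg for 90 min. Samples were crude K562 extract at 1 mg/mL protein in PBS pH 7.4 with 1 mM MgCl2, treated with 10 μM compound for 30 min, heated for 3 min across 48°C-58°C, pooled and brought to 0.5% NP-40 at 4°C. Values are log-two fold changes in thermal stability relative to solvent controls, from duplicates.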

[1] = compound: CCCS(=O)(=O)Nc1ccc(F)c(C(=O)c2c[nH]c3ncc(Cl)cc23)c1F
Outline: as §1

barasertib = compound: CCN(CCCOc1ccc2c(Nc3cc(CC(=O)Nc4cccc(F)c4)[nH]n3)ncnc2c1)CCOP(=O)(O)O [barasertib]
Outline: as §1

[2] = compound: CC[C@@H]1C(=O)N(C)c2cnc(Nc3ccc(C(=O)NC4CCN(C)CC4)cc3OC)nc2N1C1CCCC1
Outline: as §1

volasertib = compound: CC[C@@H]1C(=O)N(C)c2cnc(Nc3ccc(C(=O)N[C@H]4CC[C@H](N5CCN(CC6CC6)CC5)CC4)cc3OC)nc2N1C(C)C [volasertib]
Outline: as §1

[3] = compound: CCn1c(C(=O)N(C2CC2)C2CC2)cc2c3c(ncn3C)c(Nc3cc(C)n(C)n3)nc21
Outline: as §1

[4] = compound: CCn1cc(-c2ccnc3[nH]c(-c4cccc(CN(C)C)c4)cc23)c(-c2ccc(NC(=O)N(C)C)cc2)n1
Outline: as §1

[5] = compound: CN1CCC(CNc2ccc3ncc(-c4cccc(OC(F)(F)F)c4)n3n2)CC1
Outline: as §1

saracatinib = compound: CN1CCN(CCOc2cc(OC3CCOCC3)c3c(Nc4c(Cl)ccc5c4OCO5)ncnc3c2)CC1 [saracatinib]
Outline: as §1

sotrastaurin = compound: CN1CCN(c2nc(C3=C(c4c[nH]c5ccccc45)C(=O)NC3=O)c3ccccc3n2)CC1 [sotrastaurin]
Outline: as §1

Measured: log2 fold change

COLGALT2 (UniProt Q8IYK4)
inactive: vemurafenib -0.038 | [1] 0.01 | barasertib -0.039 | [2] -0.023 | volasertib -0.011 | [3] 0.017 | [4] -0.015 | [5] 0.019 | saracatinib 0.019 | sotrastaurin 0.017

CPED1 (UniProt A4D0V7)
inactive: vemurafenib 0.036 | [1] 0.053 | barasertib -0.013 | [2] 0.033 | volasertib -0.001 | [3] 0.014 | [4] -0.026 | [5] 0.107 | saracatinib -0.081 | sotrastaurin -0.03

COPS7B isoform 3 (UniProt Q9H9Q2)
inactive: vemurafenib 0.03 | [1] 0.011 | barasertib -0.014 | [2] -0.004 | volasertib 0.011 | [3] 0.033 | [4] 0.06 | [5] 0.029 | saracatinib -0.007 | sotrastaurin -0.068

COX18 (UniProt Q8N8Q8)
inactive: vemurafenib 0.041 | [1] 0.05 | barasertib 0.018 | [2] 0.099 | volasertib -0.001 | [3] 0.008 | [4] 0.002 | [5] -0.046 | saracatinib -0.031 | sotrastaurin 0.038

COIL (UniProt P38432)
inactive: vemurafenib -0.052 | [1] -0.029 | barasertib 0.027 | [2] 0.061 | volasertib -0.056 | [3] -0.004 | [4] 0.056 | [5] -0.027 | saracatinib -0.038 | sotrastaurin 0.007

COPS8 (UniProt Q99627)
inactive: vemurafenib 0.01 | [1] 0.027 | barasertib 0.126 | [2] -0.025 | volasertib 0.051 | [3] 0.002 | [4] -0.049 | [5] -0.026 | saracatinib 0.01 | sotrastaurin 0.017

COPA isoform 2 (UniProt P53621)
inactive: vemurafenib -0.008 | [1] 0.004 | barasertib -0.004 | [2] 0.007 | volasertib 0 | [3] 0.01 | [4] -0.002 | [5] 0.008 | saracatinib -0.025 | sotrastaurin 0

Copied from the listing (3 entries):
COX18 (UniProt Q8N8Q8)
inactive: vemurafenib 0.041 | [1] 0.05 | barasertib 0.018 | [2] 0.099 | volasertib -0.001 | [3] 0.008 | [4] 0.002 | [5] -0.046 | saracatinib -0.031 | sotrastaurin 0.038

COIL (UniProt P38432)
inactive: vemurafenib -0.052 | [1] -0.029 | barasertib 0.027 | [2] 0.061 | volasertib -0.056 | [3] -0.004 | [4] 0.056 | [5] -0.027 | saracatinib -0.038 | sotrastaurin 0.007

COPS8 (UniProt Q99627)
inactive: vemurafenib 0.01 | [1] 0.027 | barasertib 0.126 | [2] -0.025 | volasertib 0.051 | [3] 0.002 | [4] -0.049 | [5] -0.026 | saracatinib 0.01 | sotrastaurin 0.017

(list continues)

COASY isoform 2 (UniProt Q13057)
inactive: vemurafenib 0.076 | [1] 0.017 | barasertib 0.011 | [2] -0.075 | volasertib -0.098 | [3] 0.034 | [4] -0.063 | [5] 0.038 | saracatinib 0.021 | sotrastaurin 0.079

CNN2 (UniProt Q99439)
inactive: vemurafenib 0.003 | [1] 0.012 | barasertib -0.016 | [2] 0.041 | volasertib 0.024 | [3] -0.023 | [4] -0.034 | [5] 0.016 | saracatinib -0.039 | sotrastaurin -0.022

CPSF1 (UniProt Q10570)
inactive: vemurafenib 0.006 | [1] 0.02 | barasertib 0.007 | [2] 0.023 | volasertib -0.025 | [3] 0.003 | [4] -0.075 | [5] 0.033 | saracatinib 0.041 | sotrastaurin 0.004

COL18A1 (UniProt P39060)
inactive: vemurafenib 0.062 | [1] -0.024 | barasertib 0.015 | [2] -0.022 | volasertib 0.055 | [3] -0.051 | [4] -0.039 | [5] 0.02 | saracatinib 0.04 | sotrastaurin -0.027

CNNM3 (UniProt Q8NE01)
inactive: vemurafenib -0.047 | [1] 0.001 | barasertib 0.02 | [2] 0.01 | volasertib -0.021 | [3] 0.01 | [4] -0.014 | [5] -0.018 | saracatinib -0.018 | sotrastaurin 0.011

CNOT8 (UniProt Q9UFF9)
inactive: vemurafenib 0.029 | [1] -0.064 | barasertib 0.074 | [2] 0.015 | volasertib -0.064 | [3] 0.048 | [4] 0.003 | [5] -0.152 | saracatinib 0.054 | sotrastaurin 0.028

COCH (UniProt O43405)
inactive: vemurafenib 0.117 | [1] -0.021 | barasertib 0.01 | [2] 0.098 | volasertib 0.039 | [3] -0.035 | [4] 0.01 | [5] 0.028 | saracatinib 0.064 | sotrastaurin 0.023
